Reference: publication doi:10.1101/2020.05.19.104463
Positions count from the first letter of the chain named. These are yes or no findings as the source states them, for the method shown. In cells and extracts the contact can be indirect. Some binding calls cover weakened binding; strength is not graded here. For some assays here: Sequences can lack the tags named with a protein. Values belong to the binder of their own block, whether it stands above or below them.

Tests used:
GFP-RAB13(T22N) (human) [1] = target: T1, GFP-RAB13(T22N) (human) (UniProt P51153); assay: co-IP
T1 sequence: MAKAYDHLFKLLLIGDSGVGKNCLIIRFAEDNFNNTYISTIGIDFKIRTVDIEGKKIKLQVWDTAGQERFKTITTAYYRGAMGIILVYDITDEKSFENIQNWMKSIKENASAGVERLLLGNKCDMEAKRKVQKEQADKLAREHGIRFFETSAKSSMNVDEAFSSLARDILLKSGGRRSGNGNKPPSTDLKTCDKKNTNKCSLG

[2] = target: T2, GFP-RAB13 (wild type) (human) (UniProt P51153); assay: co-IP
T2 sequence: T1 sequence with N22T

[3] = target: T3, RAB13 (endogenous) (human (endogenous in MDA-MB-231)) (UniProt P51153); assay: proximity ligation
T3 sequence: T1 sequence with N22T

GFP-RAB13(T22N) (human) [4] = target: T1, GFP-RAB13(T22N) (human); assay: proximity ligation

binding (GFP-RAB13(T22N) (human) [1]): binds | binding [2]: binds | binding [3]: binds | binding (GFP-RAB13(T22N) (human) [4]): binds
B1: RABIF/MSS4 (protein, UniProt P47224 1-123)
chain: MEPAEQPSELVSAEGRNRKAVLCQRCGSRVLQPGTALFSRRQLFLPSMRKKPALSDGSNPDGDLLQEHWLVEDMFIFENVGFTKDVGNIKFLVCADCEIGPIGWHCLDDKNSFYVALERVSHE

binding [2]: binds
B2: Rab escort protein REP-1 (protein, UniProt P24386 1-653)
chain: MADTLPSEFDVIVIGTGLPESIIAAACSRSGRRVLHVDSRSYYGGNWASFSFSGLLSWLKEYQENSDIVSDSPVWQDQILENEEAIALSRKDKTIQHVEVFCYASQDLHEDVEEAGALQKNHALVTSANSTEAADSAFLPTEDESLSTMSCEMLTEQTPSSDPENALEVNGAEVTGEKENHCDDKTCVPSTSAEDMSENVPIAEDTTEQPKKNRITYSQIIKEGRRFNIDLVSKLLYSRGLLIDLLIKSNVSRYAEFKNITRILAFREGRVEQVPCSRADVFNSKQLTMVEKRMLMKFLTFCMEYEKYPDEYKGYEEITFYEYLKTQKLTPNLQYIVMHSIAMTSETASSTIDGLKATKNFLHCLGRYGNTPFLFPLYGQGELPQCFCRMCAVFGGIYCLRHSVQCLVVDKESRKCKAIIDQFGQRIISEHFLVEDSYFPENMCSRVQYRQISRAVLITDRSVLKTDSDQQISILTVPAEEPGTFAVRVIELCSSTMTCMKGTYLVHLTCTSSKTAREDLESVVQKLFVPYTEMEIENEQVEKPRILWALYFNMRDSSDISRSCYNDLPSNVYVCSGPDCGLGNDNAVKQAETLFQEICPNEDFCPPPPNPEDIILDGDSLQPEASESSAIPEANSETFKESTNLGNLEESSE
